Assay [1] concerns the target Acyl-ACP reductase (AAR) from Synechococcus elongatus PCC 7942, 6-His tagged recombinant (Synechococcus elongatus PCC 7942) (UniProt Q54765). Nature of the assay: condition: only after de-lipidation on a MAYI-ODS column; native MS; intact mass by UHPLC (C8) coupled to ESI-MS; AAR de-lipidated beforehand on a Shimadzu MAYI-ODS column; both purified.
Assay [2] has the same target. Briefly: SEC; Superdex 200 Increase 10/300 GL; AAR 1.5 mg/mL; 50 mM Tris, 100 mM NaCl, 1 mM DTT, pH 7.4; with 2.25 M GdnHCl; both purified. (In general: Size exclusion chromatography separates by hydrodynamic size, large species first.)

These are yes or no findings as the source states them, for the method shown. Tags and fused reporters may be left off the sequences shown.

B1: Acyl-ACP reductase (AAR) from Synechococcus elongatus PCC 7942, 6-His tagged recombinant (enzyme)
chain: MFGLIGHLTSLEQARDVSRRMGYDEYADQGLEFWSSAPPQIVDEITVTSATGKVIHGRYIESCFLPEMLAARRFKTATRKVLNAMSHAQKHGIDISALGGFTSIIFENFDLASLRQVRDTTLEFERFTTGNTHTAYVICRQVEAAAKTLGIDITQATVAVVGATGDIGSAVCRWLDLKLGVGDLILTARNQERLDNLQAELGRGKILPLEAALPEADFIVWVASMPQGVVIDPATLKQPCVLIDGGYPKNLGSKVQGEGIYVLNGGVVEHCFDIDWQIMSAAEMARPERQMFACFAEAMLLEFEGWHTNFSWGRNQITIEKMEAIGEASVRHGFQPLALAI
notes: Acyl-ACP reductase (AAR), Synechococcus elongatus PCC 7942, codon-optimized aar gene in pQE30; domains described as NTD 1-130, mid-domain 131-264, CTD 265-341; also called Acyl-acyl carrier protein reductase; source: E. coli M15 (pQE30AAR), purified from the soluble fraction (Ni-NTA, gel filtration)
As for B1, the binding result in assay [1] is listed as “no binding”; in assay [2], “no binding (condition: with 2.25 M GdnHCl)”.

For the origin of these results see article PMC8187606, “Biophysical and structural studies reveal marginal stability of a crucial hydrocarbon biosynthetic enzyme acyl ACP reductase” (Scientific Reports, 2021).
